For at least one entry, the source does not settle the construct or the ends of the probe.
Target: hnRNP A1 (UniProt P09651)
Test: EMSA
Settings: 150 mM KCl, 50 mM L-Arg, 50 mM L-Glu, 1.5 mM MgCl2, 0.2 mM EDTA, 0.05% BME, 20 mM Na2HPO4, pH 7.0, 4 C, 30 min; 0.5 uM RNA, 0.1-60 uM protein (Kd) or 60 uM (screen); recombinant protein; label: 5'-6-FAM

Protein sequences, listed by entry. Tags and fused reporters are not part of them. Residues count along the entry.
UniProt P09651, 2-196: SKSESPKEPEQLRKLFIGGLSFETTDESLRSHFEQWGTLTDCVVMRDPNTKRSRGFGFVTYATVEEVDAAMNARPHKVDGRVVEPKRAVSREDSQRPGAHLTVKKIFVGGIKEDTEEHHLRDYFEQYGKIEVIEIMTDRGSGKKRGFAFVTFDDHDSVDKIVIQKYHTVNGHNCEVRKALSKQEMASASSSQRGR

Sequence	Kd [µM]
UAGGUUAGGUUAGGUUAGGU [D4]	0.77
UAGGAUAGGAUAGGAUAGGA [C4]	0.76
